From US12516056B2, “Compounds for inhibition of janus kinase 1” (MANKIND PHARMA LTD., priority 2019, dated 2026)

What was measured:
[1] = tested on: STAT5 phosphorylation by IL-2 in HT-2 cells; assay: STAT5 phosphorylation by IL-2 in HT-2 cells (HTRF); details: HT2, read-out: Cell based IC50 (μM) HT-2/IL-2
Procedure: HT-2 cells were starved […] in RPMI phenol red with 10% fetal bovine serum for 4 hours in CO2 incubator maintained at 37° c. Compounds were diluted in DMSO and added to 96 well plate containing a final density of 1,20,000 cells per well. Cells and compounds are incubated for 30 minutes in CO2 incubator maintained at 37° C. and final DMSO concentration in cell based assay was 0.2%. Human recombinant cytokine, IL-2 (50 U/ml) was added to the plate containing cells and compound and incubated for 20 minutes with gentle tapping/shaking at every 5 minutes once. Compound mediated effects on STAT5 phosphorylation was measured in the lysates prepared by using CISBIO pSTAT5 detection kit by HTRF method. Background signal obtained from cells which were not activated with cytokines, was subtracted from vehicle controls and compound treated wells.

[2] = tested on: STAT5 phosphorylation by GMCSF in TF-1 cells; assay: JAK cellular assay: STAT5 phosphorylation by GMCSF in TF-1 cells (HTRF); details: Homo sapiens, TF-1, read-out: Cell based IC50 (μM) TF-1/GM-CSF
Procedure: TF-1 cells were starved overnight in OptiMEM medium with 0.5% charcoal stripped fetal bovine serum, 0.1 mM nonessential amino acids (NEAA), 1 mM sodium pyruvate and without phenol red in CO2 incubator maintained at 37° c. Next day, cells were resuspended in RPMI without phenol red and dispensed into a 96 well plate at a final cell density of 1,20,000 cells per well. Compounds were diluted in DMSO and added to cells and incubated for 30 minutes in CO2 incubator maintained at 37° c. Final DMSO concentration in cell based assay was 0.2%. Human recombinant cytokines, IL-6 (30 ng/ml) and GMCSF (5 ng/ml) were added to the plate containing cells along with compound and incubated for 20 minutes with gentle tapping at every 5 minutes once. Compound mediated effects on STAT3 and STAT5 phosphorylation was measured in the lysates prepared by using CISBIO pSTAT3 and pSTAT5 detection kits by HTRF method. Background signal obtained from cells which were not activated with cytokines, was subtracted from vehicle controls and compound treated wells.

[3] = tested on: IFN-γ production in NK 92 cells by IL-12; assay: IFN-γ production in NK 92 cells by IL-12 (ELISA); details: NK92, IFN-γ detection from cell supernatants, read-out: Cell based IC50 (μM) NK-92/IL-12*
Procedure: NK 92 cells were cultured in medium without IL-2 for overnight. Next day, 5000 cells per well NK 92 cells were seeded in a 96 well plate. Compounds were added to cells and incubated for 1 hour. Later IL-12, 10 U/ml was added to cells and incubated for overnight. Supernatant was collected from the wells and IFN-7 secretion was measured by using human IFN-7 ELISA kit. Absorbance was measured at 450 nm in BMG FLUOstar. Background signal obtained from cells which were not activated with cytokines, was subtracted from vehicle controls and compound treated wells.

IC50 [1]: 0.019 µM
IC50 [2]: 0.24 µM
IC50 [3]: 3 µM
SMILES: C[C@@H]1CCN(C(=O)CC#N)C[C@@H]1N(C)c1ncnc2[nH]ccc12 [Tofacitinib, tofacitinib, reference compound]
